Laboratory results: PubChem BioAssay AID1224828 (NIAID, 2016)
The deposit covers about 17,000 reagents; this is a part drawn at random. Of all reagents, 762 (4.5%) are marked active. 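Active calls include both raised and lowered p65 entry, mostly lowered; wells with fewer than 50 cells lack a z-score.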 Raw values vary from plate to plate and are shown uncorrected.

Purpose: 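Regulators linking TLR4 signalling to p65 nuclear translocation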 (primary screen)
Cells: mouse RAW264.7 G9 macrophage reporter cells (GFP-p65, Tnf promoter-mCherry)
Knock-down reagent: siRNA pool against mouse genes, 100 nM
Duration: 2 days siRNA transfection, then 40 min LPS before fixation
Conditions: LPS (Salmonella minnesota R595) at 10 ng/ml
Read-out: 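Imaged p65 nuclear translocation ratio, normalised to the plate median, converted to robust z-scores and averaged across two replicates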
Reading the numbers: p65 translocation robust z-score: higher = more nuclear NF-kappaB p65 after LPS than the plate median; nuclear/cytoplasmic p65 ratio: higher = more nuclear NF-kappaB p65
Call rule: 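Called active when z exceeds 3.3 or falls under -1.56 (median of Tlr4 controls), giving activity score of at least 50; no calls for control wells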
Meaning of the calls: active = hit (p65 shift raised or lowered); inactive = no clear change

Nepn [SID315472564] scored p65 translocation robust z-score 0.09; nuclear/cytoplasmic p65 ratio, rep 1 = 1.36; nuclear/cytoplasmic p65 ratio, rep 2 = 1.49; low cell count flag enough cells to score; inactive. After knock-down of Cpxm1 [SID315471422], the record shows p65 translocation robust z-score -0.24; nuclear/cytoplasmic p65 ratio, rep 1 = 1.54; nuclear/cytoplasmic p65 ratio, rep 2 = 1.74; low cell count flag enough cells to score; inactive. Hsd17b14 [SID315472189] showed p65 translocation robust z-score -1.57; nuclear/cytoplasmic p65 ratio, rep 1 = 1.39; nuclear/cytoplasmic p65 ratio, rep 2 = 1.16; low cell count flag enough cells to score; active. Pop7 [SID315474842] scored p65 translocation robust z-score -0.63; nuclear/cytoplasmic p65 ratio, rep 1 = 1.47; nuclear/cytoplasmic p65 ratio, rep 2 = 1.27; low cell count flag enough cells to score; inactive. After knock-down of Ubtf [SID315469628], the record shows p65 translocation robust z-score -0.04; nuclear/cytoplasmic p65 ratio, rep 1 = 1.61; nuclear/cytoplasmic p65 ratio, rep 2 = 1.4; low cell count flag enough cells to score; inactive. For Slc25a48 [SID315481469], the values are p65 translocation robust z-score -0.18; nuclear/cytoplasmic p65 ratio, rep 1 = 1.51; nuclear/cytoplasmic p65 ratio, rep 2 = 1.28; low cell count flag enough cells to score; inactive.

Silencing of Krt222 [SID315480774] came out at: p65 translocation robust z-score 0.34; nuclear/cytoplasmic p65 ratio, rep 1 = 1.37; nuclear/cytoplasmic p65 ratio, rep 2 = 1.54; low cell count flag enough cells to score; inactive. Knock-down of Ablim1 [SID315478485] came out at: p65 translocation robust z-score -0.42; nuclear/cytoplasmic p65 ratio, rep 1 = 1.51; nuclear/cytoplasmic p65 ratio, rep 2 = 1.59; low cell count flag enough cells to score; inactive. Crot [SID315474851] gave p65 translocation robust z-score -0.38; nuclear/cytoplasmic p65 ratio, rep 1 = 1.52; nuclear/cytoplasmic p65 ratio, rep 2 = 1.25; low cell count flag enough cells to score; inactive. Insm1 [SID315471102] scored p65 translocation robust z-score -0.3; nuclear/cytoplasmic p65 ratio, rep 1 = 1.45; nuclear/cytoplasmic p65 ratio, rep 2 = 1.32; low cell count flag enough cells to score; inactive. Silencing of Rasa3 [SID315468899] resulted in: p65 translocation robust z-score -0.94; nuclear/cytoplasmic p65 ratio, rep 1 = 1.39; nuclear/cytoplasmic p65 ratio, rep 2 = 1.32; low cell count flag enough cells to score; inactive. With knock-down of Acvr1b [SID315465278], the screen gave nuclear/cytoplasmic p65 ratio, rep 1 = 1.62; nuclear/cytoplasmic p65 ratio, rep 2 = 1.4; low cell count flag fewer than 50 cells per well; well left out of scoring; inactive.

Entries listed so far with an active call, once more:
Hsd17b14 [SID315472189] | p65 translocation robust z-score = -1.57; nuclear/cytoplasmic p65 ratio, rep 1 = 1.39; nuclear/cytoplasmic p65 ratio, rep 2 = 1.16; low cell count flag = enough cells to score; Outcome = active
